These are yes or no findings as the source states them, for the method shown. Some binding calls cover weakened binding; strength is not graded here. Sequences can lack the tags named with a protein.
How the values were obtained:
[1] = target: HPR2 polypeptide (hematopoietin receptor HPR2), on cells (human) (UniProt Q5VWK5); test: FACS on cells endogenously expressing HPR1 and HPR2 (COS-1, 293MSR, CB23, MP-1)
[2] = target: HPR1 polypeptide (hematopoietin receptor HPR1), on cells (human) (UniProt Q8NI17); test: as above

The chains behind the UniProt entries cited, without tags or fusion partners. Where a name states a change or a piece, a line headed by the entry shows the natural chain unless it says otherwise.
UniProt Q5VWK5: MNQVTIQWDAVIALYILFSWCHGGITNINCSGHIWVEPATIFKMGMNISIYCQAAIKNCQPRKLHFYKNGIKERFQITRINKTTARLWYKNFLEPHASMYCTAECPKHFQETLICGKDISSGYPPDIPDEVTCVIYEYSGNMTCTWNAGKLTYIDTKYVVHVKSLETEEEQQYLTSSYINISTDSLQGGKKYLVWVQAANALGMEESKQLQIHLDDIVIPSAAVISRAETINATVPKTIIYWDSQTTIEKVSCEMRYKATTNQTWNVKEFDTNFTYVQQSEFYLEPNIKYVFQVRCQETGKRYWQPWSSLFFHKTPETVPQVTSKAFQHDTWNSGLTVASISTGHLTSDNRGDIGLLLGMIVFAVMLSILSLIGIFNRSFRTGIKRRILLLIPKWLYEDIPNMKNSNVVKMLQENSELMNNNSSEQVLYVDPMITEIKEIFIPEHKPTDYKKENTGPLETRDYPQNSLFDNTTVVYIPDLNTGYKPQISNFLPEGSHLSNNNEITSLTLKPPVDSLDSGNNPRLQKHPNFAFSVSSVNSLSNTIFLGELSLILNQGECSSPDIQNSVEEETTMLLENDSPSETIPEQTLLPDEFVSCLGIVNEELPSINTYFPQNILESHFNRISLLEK
UniProt Q8NI17: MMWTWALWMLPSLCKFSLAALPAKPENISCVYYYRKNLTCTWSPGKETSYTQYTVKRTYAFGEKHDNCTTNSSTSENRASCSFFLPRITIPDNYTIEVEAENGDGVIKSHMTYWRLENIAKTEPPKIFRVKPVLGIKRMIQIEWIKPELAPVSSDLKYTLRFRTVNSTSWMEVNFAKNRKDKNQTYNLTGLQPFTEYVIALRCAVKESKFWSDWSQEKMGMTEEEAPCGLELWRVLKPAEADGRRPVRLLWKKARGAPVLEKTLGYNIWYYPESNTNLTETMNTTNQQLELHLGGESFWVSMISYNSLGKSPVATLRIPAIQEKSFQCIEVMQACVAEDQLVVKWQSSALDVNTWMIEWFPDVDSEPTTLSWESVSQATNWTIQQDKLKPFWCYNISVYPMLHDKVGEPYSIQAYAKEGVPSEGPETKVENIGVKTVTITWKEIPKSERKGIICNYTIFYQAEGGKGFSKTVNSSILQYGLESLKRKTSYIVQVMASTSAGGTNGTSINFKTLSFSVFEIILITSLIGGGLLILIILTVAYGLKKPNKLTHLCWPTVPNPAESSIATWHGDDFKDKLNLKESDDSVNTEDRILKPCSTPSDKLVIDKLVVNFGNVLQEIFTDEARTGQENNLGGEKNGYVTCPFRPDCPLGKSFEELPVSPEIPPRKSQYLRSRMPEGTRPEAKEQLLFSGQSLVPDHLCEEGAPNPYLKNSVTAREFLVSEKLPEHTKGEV

B1: EBI-3-Fc fusion polypeptide (Fc fusion, UniProt Q14213 21-229, looked up, not shown: a dimerising Fc or GST)
chain: RKGPPAALTLPRVQCRASRYPIAVDCSWTLPPAPNSTSPVSFIATYRLGMAARGHSWPCLQQTPTSTSCTITDVQLFSMAPYVLNVTAVHPWGSSSSFVPFITEHIIKPDPPEGVRLSPLAERQLQVQWEPPGSWPFPEIFSLKYWIRYKRQGAARFHRVGPIEATSFILRAVRPRARYYVQVAAQDLTDYGELSDWSLPATATMSLGK
binding [1]: binds | binding [2]: binds

Reference: patent publication US20040152161A1
